Measured values reported in paper PMC4762778.
Results are given in words; binding and its absence hold for the method and conditions named. In cells and extracts the contact can be indirect. Some binding calls cover weakened binding; strength is not graded here. Where a sequence is shown, tags or fusion partners need not be part of it.

By UniProt entry, the sequences of proteins in these tests, tags left out.
UniProt P39688: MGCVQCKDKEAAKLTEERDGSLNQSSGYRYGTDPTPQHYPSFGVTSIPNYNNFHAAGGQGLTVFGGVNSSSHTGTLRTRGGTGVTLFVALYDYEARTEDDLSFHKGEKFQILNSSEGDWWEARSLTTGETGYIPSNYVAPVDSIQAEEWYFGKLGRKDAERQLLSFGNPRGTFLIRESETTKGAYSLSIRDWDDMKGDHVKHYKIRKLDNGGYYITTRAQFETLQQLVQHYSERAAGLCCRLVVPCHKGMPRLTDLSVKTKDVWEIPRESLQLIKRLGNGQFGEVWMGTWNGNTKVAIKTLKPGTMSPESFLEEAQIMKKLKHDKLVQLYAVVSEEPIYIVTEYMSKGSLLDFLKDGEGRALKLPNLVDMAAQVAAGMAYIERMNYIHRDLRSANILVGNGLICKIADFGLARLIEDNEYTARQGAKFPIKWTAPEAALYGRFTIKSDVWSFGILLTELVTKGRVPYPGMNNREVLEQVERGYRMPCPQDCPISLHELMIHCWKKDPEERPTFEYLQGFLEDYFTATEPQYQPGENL

Target: T1, recombinant ISRAA protein (rISRAA), N-terminal 6His-tagged, expressed from p-SELECT-zeo in Expi293F cells (mouse) (UniProt B2CXA1)
T1 sequence: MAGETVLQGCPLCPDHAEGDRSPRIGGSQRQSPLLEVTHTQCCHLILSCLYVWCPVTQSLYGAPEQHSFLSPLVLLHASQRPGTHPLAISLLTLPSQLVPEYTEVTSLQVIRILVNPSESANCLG
Assay: pull-down; His-rISRAA immobilised on cobalt resin beads from Expi293F lysate (Pierce His Protein Interaction Pull-Down Kit), washed 5 times; incubated with EL4 cell lysate 2 hours at 4°C; eluted with 300 mM imidazole; western blot with anti-Fyn antibody; beads alone as control; only the target purified

- binding: binds
Substance: Fyn protein (59 KDa), cellular, from EL4 mouse T-cell line lysate (from UniProt P39688 1-537)
